This is a selection; strong and weak results do not stand in their true shares. The calls were merged from several studies; some rest on single wells.
Tests used:
Conditions in all cases: stereoisomer not certain
Or10j5 (Mus musculus) = Or10j5 (Mus musculus) (UniProt Q62007)
How it was run: (§1)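 Each receptor–molecule pair is labelled responsive or non-responsive (inactive) according to whether the original authors judged the measured signal statistically different from baseline. The data were taken from the main text and supplementary material of published papers and checked for typos and inconsistencies. Assay methods differed by source, with transient luciferase assays in mammalian cell lines being common.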

Protein sequences, listed by entry. Tags and fused reporters are not part of them. Lines headed by an entry give the natural chain unless they say otherwise; changes in a name come on top. Chains listed by the source or under a name are the forms on record and can include a tag or linker.
UniProt Q62007: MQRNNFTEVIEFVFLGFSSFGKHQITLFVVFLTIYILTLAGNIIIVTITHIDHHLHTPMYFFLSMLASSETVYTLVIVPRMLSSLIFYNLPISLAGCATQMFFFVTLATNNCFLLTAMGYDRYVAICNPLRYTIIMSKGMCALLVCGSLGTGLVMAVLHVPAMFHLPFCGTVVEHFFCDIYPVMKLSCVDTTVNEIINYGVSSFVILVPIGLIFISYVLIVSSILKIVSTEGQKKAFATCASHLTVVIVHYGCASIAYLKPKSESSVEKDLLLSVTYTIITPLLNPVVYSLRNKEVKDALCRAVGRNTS
UniProt Q8VFM9: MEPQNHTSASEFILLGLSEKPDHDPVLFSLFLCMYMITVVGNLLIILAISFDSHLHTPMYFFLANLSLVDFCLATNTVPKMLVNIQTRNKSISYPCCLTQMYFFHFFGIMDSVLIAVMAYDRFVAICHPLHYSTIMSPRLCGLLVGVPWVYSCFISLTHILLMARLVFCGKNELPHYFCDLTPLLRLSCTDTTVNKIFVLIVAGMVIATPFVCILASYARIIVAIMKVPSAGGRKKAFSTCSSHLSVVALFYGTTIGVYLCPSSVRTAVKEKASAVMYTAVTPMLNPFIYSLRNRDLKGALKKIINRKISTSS
UniProt Q8VGS3: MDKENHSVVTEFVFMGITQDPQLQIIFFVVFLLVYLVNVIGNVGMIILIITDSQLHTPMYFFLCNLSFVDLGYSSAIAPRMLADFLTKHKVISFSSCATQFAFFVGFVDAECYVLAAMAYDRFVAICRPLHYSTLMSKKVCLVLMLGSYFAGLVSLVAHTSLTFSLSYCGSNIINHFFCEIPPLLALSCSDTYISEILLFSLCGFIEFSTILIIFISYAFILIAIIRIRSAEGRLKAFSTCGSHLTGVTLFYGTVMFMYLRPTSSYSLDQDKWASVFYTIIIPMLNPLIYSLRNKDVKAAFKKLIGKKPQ
UniProt A2ATE5, as listed by the source: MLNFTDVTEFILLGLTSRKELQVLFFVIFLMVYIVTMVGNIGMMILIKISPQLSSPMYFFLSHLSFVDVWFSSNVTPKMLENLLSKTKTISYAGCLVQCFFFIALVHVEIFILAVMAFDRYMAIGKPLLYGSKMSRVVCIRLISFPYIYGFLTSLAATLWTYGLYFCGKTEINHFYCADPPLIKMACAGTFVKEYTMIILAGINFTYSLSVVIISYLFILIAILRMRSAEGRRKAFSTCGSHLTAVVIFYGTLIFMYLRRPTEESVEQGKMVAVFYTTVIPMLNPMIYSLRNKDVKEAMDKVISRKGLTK
UniProt A2AVB0, as listed by the source: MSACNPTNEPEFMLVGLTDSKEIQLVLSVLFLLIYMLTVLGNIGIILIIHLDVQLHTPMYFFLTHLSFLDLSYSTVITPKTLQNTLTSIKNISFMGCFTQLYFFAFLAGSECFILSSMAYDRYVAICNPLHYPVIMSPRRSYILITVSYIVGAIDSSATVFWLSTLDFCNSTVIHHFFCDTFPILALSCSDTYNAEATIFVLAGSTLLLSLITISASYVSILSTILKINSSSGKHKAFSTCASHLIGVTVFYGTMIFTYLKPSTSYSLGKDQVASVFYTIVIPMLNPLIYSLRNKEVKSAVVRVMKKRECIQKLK

Or1m1 (Mus musculus) = Or1m1 (Mus musculus) (UniProt Q8VFM9)
How it was run: as §1

Or5ar1 (Mus musculus) = Or5ar1 (Mus musculus) (UniProt Q8VGS3)
How it was run: as §1

UniProt A2ATE5 = biological target: UniProt A2ATE5
How it was run: as §1

UniProt A2AVB0 = biological target: UniProt A2AVB0
How it was run: as §1

Measured: odorant receptor agonist call;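 also: active if original authors judged signal statistically different from baseline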

CCOc1cc(C=O)ccc1O
inactive: Or10j5 (Mus musculus) | Or1m1 (Mus musculus) | Or5ar1 (Mus musculus) | UniProt A2ATE5 | UniProt A2AVB0

CCC(C)=O
inactive: Or1m1 (Mus musculus) | Or5ar1 (Mus musculus) | UniProt A2ATE5 | UniProt A2AVB0
